From PubChem BioAssay AID1347414 (National Center for Advancing Translational Sciences (NCATS), 2020)
The inconclusive results got no clear call from the source; some entries with a clear call stand among them for comparison. Potencies beside an inconclusive call are fits to weak or partial responses and may not hold up. Calls of active or inactive are those of the source. Calls follow the shape of the dose curve; as a rule, active = well fitted inhibition curve with a large enough effect; inconclusive = small, poorly fitted or top-dose-only effect; inactive = no such curve, though single readings can be large or run the other way.

assay: qHTS to identify inhibitors of the type 1 interferon - major histocompatibility complex class I in skeletal muscle: Secondary screen by immunofluorescence; conditions: C25cl48 myoblasts, IFN-b induced HLA-ABC immunofluorescence, 24 h; series mostly up to 49.8 µM; activity change, negative = inhibition: at the top concentration; also: nearly all actives have a fitted effect of over 70% in size;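 as to activity change, negative = inhibition: digitonin at 100 µM served as the cytotoxic control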
In short: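 HLA-ABC immunofluorescence, with nuclear and cell-body stains, was quantified by laser scanning cytometry. Read-out followed 24 h of IFN-beta (4.0 ng/ml) stimulation of C25cl48 human myoblasts with compounds titrated 1:3 over 11 points from 50 uM, with ruxolitinib as inhibitor control.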
% is scaled to controls: 0 for no effect and ±100 for the full control effect; potency is read from the fitted curve at half-maximal effect.

Row | Structure (SMILES) | Potency | activity change, negative = inhibition
1 | CC1(C)CC(=O)c2c(C(F)(F)F)nn(-c3ccc(C(N)=O)c(NC4CCC(OC(=O)CN)CC4)c3)c2C1 (centres undefined) | inconclusive: 51.4 nM [inhibitor, full curve, poor fit] | –
2 | NS(=O)(=O)OC[C@@H]1C[C@@H](n2ccc3c(N[C@H]4CCc5ccccc54)ncnc32)C[C@@H]1O | inconclusive: 364 nM [inhibitor, full curve, poor fit] | –
3 | CO[C@@H]1[C@@H](O)[C@H](O)[C@@H](n2c3c(Cl)cccc3c3c4c(c5c6cccc(Cl)c6[nH]c5c32)C(=O)NC4=O)O[C@H]1CO | – | inactive: 2.3%
4 | Cc1cc(Nc2cc(CN3CCOCC3)c3nc(C)c(Cc4ccc(Cl)cc4F)n3n2)n[nH]1 | inconclusive: 2290 nM [inhibitor, full curve, poor fit] | –
5 | COc1cccc(-c2cc(F)ccc2[C@H]2Cc3nc(N)nc(C)c3C(=O)N2)n1 | inconclusive: 20.5 nM [inhibitor, full curve] | –
6 | CCCOc1ccc2nc(NC(=O)OC)[nH]c2c1 | – | inactive: 1.06%
7 | Cn1ncc2cc(-c3cnc(N)c(Cl)c3N3CCC4(CCNC4=O)CC3)ccc21 | inconclusive: 3240 nM [inhibitor, full curve] | –
8 | CC(C)(C)c1nc(-c2cccc(NS(=O)(=O)c3c(F)cccc3F)c2F)c(-c2ccnc(N)n2)s1 | inconclusive: 9130 nM [inhibitor, partial curve, poor fit] | –
9 | COC(=O)Nc1nc2ccc(C(=O)c3ccccc3)cc2[nH]1 | inconclusive: 28900 nM [inhibitor, partial curve] | –

Single values from the entries so far:
Value for COc1cccc(-c2cc(F)ccc2[C@H]2Cc3nc(N)nc(C)c3C(=O)N2)n1 under Potency: inconclusive: 20.5 nM [inhibitor, full curve]
Value for CCCOc1ccc2nc(NC(=O)OC)[nH]c2c1 under activity change, negative = inhibition: inactive: 1.06%
